{"source": "PubChem BioAssay AID602196 (INSERM, 2012)", "assay": "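Knock-downs that protect lung cancer cells from cisplatin or sensitise them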", "cells": "human A549 lung cancer cells", "reagent": "siRNA pair against human genes", "time to read-out": "48 h transfection before cisplatin; time from cisplatin to read-out not stated", "challenge": "cisplatin at a dose killing half of control-siRNA cells; exact dose and duration not given", "read-out": "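Shift in cisplatin death relative to control siRNA, from -50 (all cells die) to +50 (no cells die); siRNAs harmful on their own scored 0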", "reading the numbers": "two-siRNA summed score (-2 to +2): higher = both siRNAs protect from cisplatin killing; -2 means both sensitise", "call rule": "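siRNAs harmful alone (LDH or WST-1) get 0; others get +1 for less and -1 for more cisplatin killing; genes are active when the two siRNAs give the same sign, summing to ±2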", "meaning of the calls": "active = both siRNAs shift cisplatin killing the same way; inactive = no consistent shift, or siRNA harmful alone", "note": "This is one part, drawn at random, of about 23,000 reagents tested. Of all reagents, 455 (2%) are marked active. 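Active includes both protection and sensitisation; some change values fall well beyond the stated -50 to +50 range.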 Unmarked entries are inactive. Further read-outs or replicates are left out here. The record does not give: the amount of reagent."}
{"gene knocked down": "LOC440370", "two-siRNA summed score (-2 to +2)": 0}
{"gene knocked down": "XAGE5", "two-siRNA summed score (-2 to +2)": -1}
{"gene knocked down": "TRPC7", "two-siRNA summed score (-2 to +2)": 0}
{"gene knocked down": "EPHA7", "two-siRNA summed score (-2 to +2)": 1}
{"gene knocked down": "LOC442608", "two-siRNA summed score (-2 to +2)": 0}
{"gene knocked down": "ZNF705A", "two-siRNA summed score (-2 to +2)": 0}
{"gene knocked down": "MMP23B", "two-siRNA summed score (-2 to +2)": 0}
{"gene knocked down": "PRPF39", "two-siRNA summed score (-2 to +2)": 0}
{"gene knocked down": "LOC440144", "two-siRNA summed score (-2 to +2)": 0}
{"gene knocked down": "PEX13", "two-siRNA summed score (-2 to +2)": 0}
{"gene knocked down": "TFDP1", "two-siRNA summed score (-2 to +2)": -1}
{"gene knocked down": "CACNA1F", "two-siRNA summed score (-2 to +2)": 1}
{"gene knocked down": "LOC340096", "two-siRNA summed score (-2 to +2)": -1}
{"gene knocked down": "LMTK3", "two-siRNA summed score (-2 to +2)": 0}
{"gene knocked down": "SNHG11", "two-siRNA summed score (-2 to +2)": 1}
{"gene knocked down": "SLC25A4", "two-siRNA summed score (-2 to +2)": -1}
{"gene knocked down": "RTN4RL2", "two-siRNA summed score (-2 to +2)": -1}
{"gene knocked down": "ABCA3", "two-siRNA summed score (-2 to +2)": 0}
{"gene knocked down": "SPRYD4", "two-siRNA summed score (-2 to +2)": 0}
{"gene knocked down": "CASP2", "two-siRNA summed score (-2 to +2)": 0}
{"gene knocked down": "ISCU", "two-siRNA summed score (-2 to +2)": 0}
{"gene knocked down": "RAB5C", "two-siRNA summed score (-2 to +2)": 1}
{"gene knocked down": "EIF1AY", "two-siRNA summed score (-2 to +2)": 0}
{"gene knocked down": "LOC389767", "two-siRNA summed score (-2 to +2)": 0}
{"gene knocked down": "YIF1A", "two-siRNA summed score (-2 to +2)": 0}
{"gene knocked down": "STRA8", "two-siRNA summed score (-2 to +2)": 1}

A few values from above:
Under “two-siRNA summed score (-2 to +2)”, LOC440370 reads 0
Under “two-siRNA summed score (-2 to +2)”, EPHA7 has 1

Continued:
{"gene knocked down": "RLF", "two-siRNA summed score (-2 to +2)": -1}
{"gene knocked down": "NUDT4", "two-siRNA summed score (-2 to +2)": 0}
{"gene knocked down": "PRMT5", "two-siRNA summed score (-2 to +2)": 1}
{"gene knocked down": "LOC440676", "two-siRNA summed score (-2 to +2)": 1}
{"gene knocked down": "NDUFB1", "two-siRNA summed score (-2 to +2)": 0}
{"gene knocked down": "SLC60A2", "two-siRNA summed score (-2 to +2)": 0}
{"gene knocked down": "ITFG2", "two-siRNA summed score (-2 to +2)": 0}
{"gene knocked down": "RRAS", "two-siRNA summed score (-2 to +2)": 0}
{"gene knocked down": "RBM28", "two-siRNA summed score (-2 to +2)": 0}
{"gene knocked down": "MRPS9", "two-siRNA summed score (-2 to +2)": 0}
{"gene knocked down": "CAT", "two-siRNA summed score (-2 to +2)": 0}
{"gene knocked down": "FGFBP3", "two-siRNA summed score (-2 to +2)": 0}
{"gene knocked down": "AACSP1", "two-siRNA summed score (-2 to +2)": 0}
{"gene knocked down": "LOC146713", "two-siRNA summed score (-2 to +2)": 0}
